Reference: PubChem BioAssay AID504467 (National Center for Advancing Translational Sciences (NCATS), 2011)
Hit rate of the full screen: of about 330,000 compounds, about 7,700 (2.3%) were called active. The shares of active, inactive and inconclusive entries below differ from those in the screen. Calls come from the whole dose curve; as a rule, active = well fitted inhibition curve with a large enough effect; inconclusive = small, poorly fitted or top-dose-only effect, or effect the other way; inactive = flat fitted curve, though single readings scatter. A potency beside an inconclusive call is a rough fit, not a confirmed value.

Experiment: qHTS screen for small molecules that inhibit ELG1-dependent DNA repair in human embryonic kidney (HEK293T) cells expressing luciferase-tagged ELG1; note: nearly all actives have a fitted effect of over 55% in size
Details: HEK293T ELG1-luciferase reporter, luminescence, 16 h, DNA damage induced by 5-fluorouridine; activity change, negative = inhibition: at 46.1 µM (top of the series)
Method in brief: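 DMSO vehicle served as the neutral condition. Each well held 2,000 cells given 5-fluorouridine plus compound; after 16 hr at 37 °C/5% CO2, ONE-Glo was added and luciferase measured 30 min later.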
% is set by controls: 0 for no effect and ±100 for the full control effect; potency is the fitted concentration of half-maximal effect.

| Structure (SMILES) | activity change, negative = inhibition | Potency |
| --- | --- | --- |
| CCNC(=S)Nc1cccc([N+](=O)[O-])c1 | inactive: 13.4% |  |
| C[C@H](CO)N1C[C@H](C)[C@@H](CN(C)S(=O)(=O)c2ccccc2)Oc2ccc(NC(=O)Cc3ccccc3)cc2C1=O |  | inconclusive: 23.1 µM [inhibitor, single point] |
| CC(=O)N1N=C(c2cccc(O)c2)CC1c1cccs1 (centres undefined) | inactive: -23% |  |
| O=S(=O)(Nc1ccc(S(=O)(=O)N2CCCC2)cc1)c1ccc(F)cc1F | inactive: 3.57% |  |
| CCOC(=O)CNC(=O)Cn1cnc2c(cnn2-c2ccc(C)cc2)c1=O | inactive: -7.67% |  |
| Cc1cccc(NC(=S)N/C(=N/S(=O)(=O)c2ccccc2)c2ccccc2)c1 |  | inconclusive: 18.4 µM [activator, single point] |
| COc1ccc([C@H]2CC(=O)C=C(c3ccc(CNC(=O)OC(C)(C)C)cc3)C2)cc1 |  | inconclusive: 29.1 µM [inhibitor, single point] |
| CCOC(=O)N1CCC(NC(=O)CS(=O)Cc2nc(-c3ccccc3C)oc2C)CC1 (centres undefined) |  | inconclusive: 18.3 µM [inhibitor, partial curve] |
| COC(=O)c1ccc(Cn2nc(C)cc2C)cc1 |  | inconclusive: 16.4 µM [activator, single point] |
| COc1ccc(C(=O)C2CCCN(C/C=C/c3ccccc3OC)C2)c(OC)c1 (centres undefined) | inactive: -12.2% |  |
| CN(C)S(=O)(=O)c1cccc(-c2nnc(-c3ccccc3)o2)c1 |  | inconclusive: 4.61 µM [activator, full curve] |
| c1ccc2c(c1)nc1n2C2(N3CCOCC3)CCCC2C1N1CCOCC1 (centres undefined) |  | inconclusive: 13 µM [activator, partial curve, poor fit] |
| CC(C)c1ccc(-n2nc3ccc(N)cc3n2)cc1 |  | inconclusive: 8.2 µM [activator, partial curve] |
| O=S(=O)(c1ccc(Cl)cc1)N1CCCc2ccccc21 | inactive: -6.46% |  |
| CCOc1ccc(CN(C)C(C)C(=O)NCCc2ccc(F)cc2)cc1 (centres undefined) |  | inconclusive: 23.1 µM [inhibitor, single point] |
| FC(F)(F)c1cnc2c(c1)Nc1ccccc1S2 |  | inconclusive: 25.9 µM [activator, single point] |
| COc1cc(/C=c2\sc3n(c2=O)C(c2ccccc2)C(c2ccccc2)=NN=3)ccc1O (centres undefined) |  | inconclusive: 16.4 µM [inhibitor, partial curve] |
| Cc1ccc(NS(=O)(=O)c2cc([N+](=O)[O-])ccc2NNC(=S)Nc2cccc(Cl)c2)c(C)c1 | inactive: -2.33% |  |
| COc1cc(NS(=O)(=O)c2ccc(N/C=C(\C=O)c3nc4cc(Cl)ccc4o3)cc2)nc(OC)n1 |  | inconclusive: 11.6 µM [activator, partial curve, poor fit] |
| COc1ccc(C(=O)Nc2nc3ccccc3[nH]2)cc1 |  | inconclusive: 0.206 µM [activator, partial curve] |
| Cc1n[nH]c(C)c1N1C(=O)c2cccc3c(Br)ccc(c23)C1=O |  | inconclusive: 23.1 µM [activator, single point] |
| COc1ccc(NC(=O)CCc2nnc3ccc(N4CCC(C)CC4)nn23)cc1OC | inactive: -16.8% |  |

By substructure: those above containing an NH in an aromatic ring.

| Structure (SMILES) | activity change, negative = inhibition | Potency |
| --- | --- | --- |
| COc1ccc(C(=O)Nc2nc3ccccc3[nH]2)cc1 |  | inconclusive: 0.206 µM [activator, partial curve] |
| Cc1n[nH]c(C)c1N1C(=O)c2cccc3c(Br)ccc(c23)C1=O |  | inconclusive: 23.1 µM [activator, single point] |

Later entries

| Structure (SMILES) | activity change, negative = inhibition | Potency |
| --- | --- | --- |
| COc1cc(C)c(NC(=O)c2cc(C3CC3)nc3c2cnn3C(C)C)cc1OC |  | inconclusive: 11.6 µM [inhibitor, partial curve, poor fit] |
| COc1ccc(-c2ccnc3nc(N4CCN(c5ccccc5)CC4)nn23)cc1 | inactive: 6.74% |  |
| CC(C)(C)c1nnc(SCC(=O)c2ccccc2)n(N)c1=O |  | inconclusive: 20.6 µM [activator, single point] |
| O=C(CCC(=O)c1cccs1)OCC(=O)c1ccccc1F | inactive: 6.9% |  |
| O=C(NCc1ccc(F)cc1)c1cc2ccccn2n1 |  | inconclusive: 13 µM [activator, partial curve, poor fit] |
| CCCCC(=NCCc1c(C)[nH]c2ccc(OC)cc12)C1=C(O)CC(c2ccccc2)CC1=O (centres undefined) |  | active: 10.3 µM |
| COc1ccc(Cc2nnc(SCC(=O)c3cccc([N+](=O)[O-])c3)n2C)cc1 |  | inconclusive: 20.6 µM [inhibitor, single point] |
| COC(=O)C1CCN(C(=O)c2cc3c(=O)n4cccc(C)c4nc3n2Cc2ccccc2)CC1 |  | inconclusive: 5.8 µM [inhibitor, partial curve, poor fit] |
| CN(C)CCCn1c(=O)n(Cc2ccco2)c(=O)c2c3c(sc21)CCCCC3 |  | inconclusive: 10.3 µM [activator, partial curve, poor fit] |
| CN(CCc1ccccn1)C(=O)CCc1nnc(CCCc2ccccc2)o1 |  | inconclusive: 20.6 µM [activator, partial curve] |
| CCOc1cccc2sc(=NC(=O)c3ccco3)n(CC(=O)OC)c12 |  | inconclusive: 18.3 µM [inhibitor, single point] |
| CC(=O)c1sc(NC(=O)c2ccc3c(c2)OCO3)nc1C |  | inconclusive: 6.51 µM [activator, partial curve] |
| Cc1ccc(N(Cc2cc3ccccc3[nH]c2=O)S(C)(=O)=O)cc1 |  | inconclusive: 5.8 µM [inhibitor, single point] |
| COc1ccc(CCNc2c(C)c(C)nc3ncnn23)cc1 | inactive: -1.19% |  |
| CCCOc1ccc(N2C(=O)CC(N(CCc3ccccc3)C(=O)c3ccccc3)C2=O)cc1 (centres undefined) | inconclusive: 157% [activator] |  |
| COc1ccc(Nc2cc(C)nc3ncnn23)c(OC)c1 |  | inconclusive: 18.4 µM [activator, single point] |
| CCCCCCC(C)n1[nH]c(=O)c2c(C)cc(=O)[nH]c21 (centres undefined) |  | inconclusive: 10.3 µM [inhibitor, partial curve] |
| Cc1ccc2nc3c(c(Nc4ccc5c(c4)OCCO5)c2c1)CCC3 | inactive: -20.6% |  |
| CS(=O)(=O)N(CC(=O)N/N=C/c1cccc2c1OCCO2)c1ccccc1Br | inactive: -4.08% |  |
| CC(C)(C)C1N=C(c2ccc3ccccc3c2)OC1=O (centres undefined) |  | inconclusive: 29.1 µM [activator, single point] |
| CN1CCC(OC(=O)c2cc3cc(Br)ccc3oc2=O)CC1 | inactive: -6.96% |  |
| O=C(Nc1ccc(F)cc1)c1nn(-c2ccccc2)c(=O)cc1Cl |  | inconclusive: 29.1 µM [inhibitor, single point] |
